No constants are given. Whether binding was seen depends on the method and setting. Some binding calls cover weakened binding; strength is not graded here. Where a sequence is shown, tags or fusion partners need not be part of it.

Chains of the proteins cited; added tags and fusions are not shown.
UniProt Q9FTA2: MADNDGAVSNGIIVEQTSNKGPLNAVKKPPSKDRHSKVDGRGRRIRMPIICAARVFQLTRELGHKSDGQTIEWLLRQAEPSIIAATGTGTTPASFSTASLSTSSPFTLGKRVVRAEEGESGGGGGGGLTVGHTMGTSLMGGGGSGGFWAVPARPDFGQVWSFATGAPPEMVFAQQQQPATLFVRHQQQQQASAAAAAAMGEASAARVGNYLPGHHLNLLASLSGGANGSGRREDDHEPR

Assay [1] deals with GAL4-BD-CHE (Arabidopsis thaliana) (UniProt Q9FTA2). In words: two-hybrid.
In assay [2] the target is T1, GAL4-BD-TOC1 (Arabidopsis thaliana) (UniProt Q9LKL2).
T1 sequence: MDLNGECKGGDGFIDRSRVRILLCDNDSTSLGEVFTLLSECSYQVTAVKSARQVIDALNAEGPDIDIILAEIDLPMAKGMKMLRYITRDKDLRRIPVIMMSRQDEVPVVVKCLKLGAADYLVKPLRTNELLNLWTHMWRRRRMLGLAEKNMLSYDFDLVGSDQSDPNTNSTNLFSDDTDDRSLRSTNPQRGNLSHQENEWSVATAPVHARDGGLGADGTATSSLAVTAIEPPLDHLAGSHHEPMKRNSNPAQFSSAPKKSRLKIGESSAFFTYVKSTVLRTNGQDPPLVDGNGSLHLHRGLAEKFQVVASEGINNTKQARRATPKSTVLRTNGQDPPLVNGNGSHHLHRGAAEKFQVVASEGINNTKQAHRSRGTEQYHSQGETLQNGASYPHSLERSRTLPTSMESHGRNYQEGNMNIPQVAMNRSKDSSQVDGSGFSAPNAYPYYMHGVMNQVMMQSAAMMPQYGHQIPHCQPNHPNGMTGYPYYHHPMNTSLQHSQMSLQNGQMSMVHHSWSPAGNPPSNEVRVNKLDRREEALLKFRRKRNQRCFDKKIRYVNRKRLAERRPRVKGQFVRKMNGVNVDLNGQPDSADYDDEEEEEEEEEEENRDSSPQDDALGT
In words: two-hybrid.

B1: GAL4-AD-ZTL LOV domain (domain or fragment, UniProt Q94BT6 1-196)
chain: MEWDSGSDLSADDASSLADDEEGGLFPGGGPIPYPVGNLLHTAPCGFVVTDAVEPDQPIIYVNTVFEMVTGYRAEEVLGGNCRFLQCRGPFAKRRHPLVDSMVVSEIRKCIDEGIEFQGELLNFRKDGSPLMNRLRLTPIYGDDDTITHIIGIQFFIETDIDLGPVLGSSTKEKSIDGIYSALAAGERNVSRGMCG
As to B1, the binding result in assay [1] and in assay [2] was “binds” each time.

B2: GAL4-AD-ZTL decoy (domain or fragment, UniProt Q94BT6 1-196; Q94BT6 246-609)
chain: MEWDSGSDLSADDASSLADDEEGGLFPGGGPIPYPVGNLLHTAPCGFVVTDAVEPDQPIIYVNTVFEMVTGYRAEEVLGGNCRFLQCRGPFAKRRHPLVDSMVVSEIRKCIDEGIEFQGELLNFRKDGSPLMNRLRLTPIYGDDDTITHIIGIQFFIETDIDLGPVLGSSTKEKSIDGIYSALAAGERNVSRGMCGWGSETTRVLETVPGAKRLGWGRLARELTTLEAAAWRKLSVGGSVEPSRCNFSACAVGNRVVLFGGEGVNMQPMNDTFVLDLNSDYPEWQHVKVSSPPPGRWGHTLTCVNGSNLVVFGGCGQQGLLNDVFVLNLDAKPPTWREISGLAPPLPRSWHSSCTLDGTKLIVSGGCADSGVLLSDTFLLDLSIEKPVWREIPAAWTPPSRLGHTLSVYGGRKILMFGGLAKSGPLKFRSSDVFTMDLSEEEPCWRCVTGSGMPGAGNPGGVAPPPRLDHVAVNLPGGRILIFGGSVAGLHSASQLYLLDPTEDKPTWRILNIPGRPPRFAWGHGTCVVGGTRAIVLGGQTGEEWMLSELHELSLASYLT
As for B2, in assay [1], the binding result is on record as “binds”.

These data come from paper doi:10.1101/115071.
